Among the data in PubChem BioAssay AID1347423 (Functional Genomics Laboratory (NCATS/FGL), 2020) are z-score values, retold here.

About 210 (0.4%) of roughly 52,000 sequences were called active.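 How the source made its calls: active means gene whose silencing raises cell survival under the drug, median off-target-corrected z-score across its silencing RNAs 2 or more; inactive means the rest.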 This is one part of the list.

This test can be described thus: Resistance to Poly (ADP-Ribose) Polymerase inhibitor: Gene Identification via Genome-wide siRNA Screen. To be noted: mouse BRCA2 R2336H ES cells, olaparib, CellTiter-Glo viability; hits give high values. Summed up:
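Genome-wide siRNA screen (3 siRNAs/gene, 20 nM) in mouse ES cells carrying hypomorphic BRCA2 R2336H; olaparib 500 nM added 48 h post-transfection, CellTiter-Glo viability 72 h later. Normalized to plate-median negative control; MAD z-scores, gene median, seed-adjusted.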
For the sequence GGCAUUUCUGUUCUGUAAGTT against Sh3bgrl, the z-score was inactive: 0.378.
Then GCAGAAGUCAGUCAUGAAUTT against Fbf1, with inactive: 0.961; and “GGGCAUAACGUGUUCACAUTT against 1110032A04Rik”, with inactive: -0.12; and “GCAGUUUGGUCACCUACCATT against 4930583K01Rik”, with inactive: -2.18.
In the case of CCAUCAGGUUGACGACUUUTT against Olfr90 it was inactive: -2.07; in that of CCUCUGUGAUCCCUAAGAATT against Ubd, inactive: -0.259.
In the case of CCCGCUAUUUGGUGCUAACTT against Amh it was inactive: 0.646.
For the sequence CGACAAUCAACCUACCAGCTT against Cd68, the z-score was inactive: 0.26.
Then GGAAUGACAAGCUGAAGAUTT against Zfp67, with inactive: -2.51; and GCAACAAGCUGAUAGGGACTT against Otof, with inactive: -0.387; and GGAUUCAUAUGUGAUUGACTT against Flt4, with inactive: 1.2.
In the case of “GCAGGCAUUCUCUCAAAAUTT against 0610011I04Rik” it was inactive: -0.148.
In the case of GGAAUUCAUGUUUUCGCUUTT against Slc9a3r2 it was inactive: 0.973; in that of CCAGGGAUCUACAUCUACATT against Olfr1367, inactive: 1.13.
Regarding CCUCACAGUAUUCGGCCGATT against Adamts2, the z-score was inactive: 0.499.
In the case of GCGGAACCUAUAUAGGAAUTT against Zfp74 it was inactive: 1.61; in that of GGAGAAAACAGGAAUUGUGTT against H2-Eb1, inactive: 1.12; in that of GGCAAAGUUCUCUUCCAUATT against Olfr914, inactive: 0.698.
Turning to GCCCAAGAAUGUGCCUUAUTT against Olfr1278, the z-score was inactive: -0.961.
In the case of GGACAAACUGGACUAUUAUTT against Galnt15 it was inactive: -1.22.
Regarding GGAACAAGCAUACAGGUUCTT against Nphp1, the z-score was inactive: 1.6.
In the case of GGUACUAAAUAUAAAUGGCTT against Igsf6, the z-score is inactive: 0.593.
In the case of GGCUAACCACAUUUGCUUCTT against Zic4, the z-score was inactive: -0.5.
Then GGCAACAGCAUCCUACUCUTT against Olfr652, with inactive: -1.26.
GGUUGAGUGUUUAACUUAGTT against Trappc5: the z-score is inactive: -0.104.
In the case of GCUAUUUGUCCCUUAGCAGTT against Slc22a5 it was inactive: 0.408.
Then GCAAGAACCUAGAGUUAUUTT against Zfp105, with inactive: -0.599; and CCAAUACGAACAACUUGCATT against Krt1-10, with inactive: 0.786.
In the case of GCAAUGGGUUGUAAAUUUATT against Fndc3 it was inactive: 0.325; in that of “GGACAACGUAGCCUUCGUUTT against 3100002P13Rik”, inactive: -1.8.
For the sequence GGAGAAGAUUCCAGAAGCCTT against Tcf15, the z-score is inactive: 0.123.
Then “CCCUCAAGUACGAAAUCAATT against 5830427H10Rik”, with inactive: 2.33; and GGAUUCAGAAGCAGCAACATT against Nr1h2, with inactive: 0.194; and GGCUGAUAAAAGUUUCAGATT against C9, with inactive: 0.875.
In the case of CCGGGAUAACGACCCUAAUTT against Polr2c it was inactive: -1.03; in that of GGACCUGGUUAAGAUAUGUTT against Pmch, inactive: 1.37.
In the case of GGAUGAGAAACCAUUUAAATT against Oas1f it was inactive: 1.31.
GCAGUUUUUGAGUCACUACTT against AY314008: the z-score is inactive: 2.48.
In the case of GCAGAUCAACUACGGGAAGTT against Slbp it was inactive: -1.16; in that of GGGCAGUGCCUAUUUGAACTT against Cyp4f18, inactive: -1.33; in that of “GGAUCACGGUCUACAAUAATT against 1700009J07Rik”, inactive: -0.326.
Then GGCUGUGGACUCUGCAUGUTT against Prkwnk4, with inactive: 0.213; and CCUUAGUUAGAAAUGUUGATT against Xkh, with inactive: 0.357; and GCAGUGUCCAGUAAAGAUUTT against Pwwp1, with inactive: -1.23.
Then “GGAGCACUUUAAGUUAUACTT against 2310014L17Rik”, with inactive: -0.644; and GCAGAAACCGUAAAAGCCUTT against Lypla1, with inactive: 0.627.
In the case of “GGUUUUACAGAACAUGGUATT against 5730589K01Rik”, the z-score was inactive: -1.74.
Then GGAGGAGAGAUGGUAAUCCTT against Olfr729, with inactive: -1.83; and GCGACCAUUUCGUUUUAGUTT against Frat1, with inactive: 0.402.
In the case of CGAGACUCUAGAUAGACUGTT against Zswim3 it was inactive: 0.0084; in that of CCGUUUUGGUCACGUAUCATT against Olfr599, inactive: -0.848; in that of GGAGCUGUCUAUCACCUGGTT against Popdc2, inactive: 1.48.
In the case of GGCUCUUUGUUCAGUUUUUTT against Fxyd3 it was inactive: 0.0991; in that of “GGACAGUCUGCUCAUCGACTT against 2310066E14Rik”, inactive: 0.223.
With GGAAGAAGCACAAUUUGAATT against 15-Sep, the z-score is inactive: 0.295.
Then GCUUCAGUGGCUACUCUUGTT against H2-M2, with inactive: -0.579; and GGUCUUCUACAACUCGGAATT against Sgpp1, with active: -0.0398; and GGAAUGAGAUGUUUUGAGUTT against Ostf1, with inactive: -0.741.
In the case of “GGUUUUUUGCUCUAUUUGATT against B430315C20Rik” it was inactive: 0.144.
Then GCUCUACAGAUGCCACCACTT against Mlycd, with inactive: -0.497.
For the sequence CCUGAUGUAACUAUAAACATT against Adam32, the z-score is inactive: 0.332.
In the case of GCAAUAAAUGGGAACUUACTT against Lrpprc it was inactive: 0.84; in that of GGUGUGUCUGUGCUUAUUUTT against Olfr780, inactive: -0.396.
As for “CCUAAGAGAUAAGAGCACCTT against 1110013G13Rik”, the z-score is inactive: -0.663.
Then “GGGACCUAGGGAGAAAGAGTT against 6330419J24Rik”, with inactive: -0.511.
Then GCUACAUGGCUAGAAUAGATT against Eif2s2, with inactive: -0.516; and CCGACUAAAGUGUUUAAUUTT against Pfkfb1, with inactive: 0.358.
In the case of GCACUAUGACUACAAGAGUTT against Olfr1457 it was inactive: -0.593; in that of GGGAACCUCCUUGUGAACATT against Nlk, inactive: -1.6.
GGCGUGAAAAUAGGAGAAUTT against Extl2: the z-score was inactive: -1.53.
In the case of “GGCUGAAGAGGUUUUACGATT against D12Ertd553e” it was inactive: 1.84.
Then CCUCUGCAUCUUGGCACCATT against BC010787, with inactive: -2.22; and “GCCAAGUGACGAUCAACUATT against 2310051D06Rik”, with inactive: -0.739; and “GGGAAAAAUGGCCUUUCUGTT against 2410012C07Rik”, with inactive: 1.18.
In the case of GGGUAAUGCAAAGAAAACATT against Dlc1 it was inactive: 0.839.
With GGACAUCAGUAUGAAUAAGTT against AI553587, the z-score is inactive: -0.448.
With GGGUACAAGCUUAUCAAUATT against Trpm6, the z-score was inactive: 0.137.
Then GCUACAUGUACCAGACAAATT against Hspb7, with inactive: -2.12.
In the case of GGGACCUGAGGAAAACUGUTT against Ctdsp2 it was inactive: 0.413; in that of GGGAGCUACUACCUAUGAUTT against Dio2, inactive: -1.48; in that of CCUGGAUGUAGACUUCGCATT against Slc6a7, inactive: 1.23.
In the case of “CCAUGGGUACCUAUAUCGUTT against 5730466C23Rik” it was inactive: -0.833; in that of GUCAUCUUGUUCCAUCUGATT against Olfr1269, inactive: 0.987; in that of GGAUGACUUCUGUCUUCUUTT against AW491445, inactive: -0.349.
For the sequence CCCUGCAUUUGUCAAUUAUTT against Hnrpl, the z-score is inactive: 0.422.
In the case of GGUUUAUGGGACAGUUUUUTT against Plk2 it was inactive: 0.337; in that of GGAAUUUGCUGCCCUCCUATT against Smad3, inactive: -2.09.
Then GGAAAUUUCAAGAGCAAGATT against Rras2, with inactive: 1.67; and GGGCUUCUAUUUGUUCCACTT against Lrfn5, with inactive: -0.526.
Regarding GCCCGUUCCUUUUAUGUAUTT against Klf3, the z-score was inactive: -0.651.
In the case of GGAACCAAGGAUGUGAAAGTT against Rab13 it was inactive: -0.614; in that of GGAGGAGAAUGCCACAACUTT against 425O18-1, inactive: -2.02.
Then GGAUGGUCAUAAGGAUCAATT against Gpr128, with active: 2.66; and GGGAAACUUCUUCAUGGGUTT against Dazap2, with inactive: -0.172.
Then GGGUAAUUAAAAAGGAAACTT against Nt5c2l1, with inactive: 1.84; and GGUGACUUUUUGGUACAGATT against Mthfr, with inactive: -0.809; and “GGUGUAGGCUCCCUGACAUTT against C130046B21Rik”, with inactive: -0.361.
For GGUACUCCCGAUCUGCUAUTT against Rpl6, the z-score is inactive: -3.16.
In the case of “GGUUAAGUGUGUUAAGUUCTT against 2310044G17Rik” it was inactive: 0.557; in that of CGAAAAGAUAAGCCCUUAATT against Mphosph10, inactive: -1.06; in that of GGUGUAACUGGGCUGCAUGTT against Avpi1, inactive: -0.882.
In the case of GGAGAUAUCCUUUUGCUCUTT against Tbc1d1 it was inactive: 0.395; in that of GUUCGCUGAACACGUCUUCTT against Hpcal1, inactive: -0.829; in that of GCAUCAAGUCUGAGCGACUTT against Mef2b, inactive: -0.714.
